We go through two molecules from article PMC10584835.

For assay [1], the target named is T1, CHFR (checkpoint protein with FHA and Ring domain), human recombinant protein on the AVM BIOMED microarray (human) (UniProt Q96EP1).
T1 sequence: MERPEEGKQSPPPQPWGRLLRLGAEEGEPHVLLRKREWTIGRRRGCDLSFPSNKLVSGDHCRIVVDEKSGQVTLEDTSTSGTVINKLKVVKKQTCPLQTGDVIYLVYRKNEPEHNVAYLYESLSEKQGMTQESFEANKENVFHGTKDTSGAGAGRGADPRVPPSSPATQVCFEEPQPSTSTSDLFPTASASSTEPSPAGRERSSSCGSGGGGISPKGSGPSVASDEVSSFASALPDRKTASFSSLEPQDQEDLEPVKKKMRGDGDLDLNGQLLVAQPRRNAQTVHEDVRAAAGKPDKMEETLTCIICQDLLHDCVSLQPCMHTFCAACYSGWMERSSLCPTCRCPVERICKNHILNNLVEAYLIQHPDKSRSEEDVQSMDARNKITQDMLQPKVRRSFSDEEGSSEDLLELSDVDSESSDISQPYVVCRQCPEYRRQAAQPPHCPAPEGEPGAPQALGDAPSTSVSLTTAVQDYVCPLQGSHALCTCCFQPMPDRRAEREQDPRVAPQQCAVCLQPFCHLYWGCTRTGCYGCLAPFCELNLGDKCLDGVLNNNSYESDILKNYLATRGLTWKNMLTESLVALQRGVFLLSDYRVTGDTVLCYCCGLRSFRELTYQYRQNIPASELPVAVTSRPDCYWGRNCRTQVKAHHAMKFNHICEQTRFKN
Briefly: peptide or protein array; AVM BIOMED Snapshot Proteomics microarray, 21,065 human recombinant proteins on nitrocellulose-coated slides; incubated 90 min at RT with hVE-cad-GFP (5 ug protein/ml in PBST); GFP fluorescence scanned; both purified.

Assay [2] concerns the target T2, N-terminal eGFP fused wild-type human CHFR (human) (UniProt Q96EP1).
T2 sequence: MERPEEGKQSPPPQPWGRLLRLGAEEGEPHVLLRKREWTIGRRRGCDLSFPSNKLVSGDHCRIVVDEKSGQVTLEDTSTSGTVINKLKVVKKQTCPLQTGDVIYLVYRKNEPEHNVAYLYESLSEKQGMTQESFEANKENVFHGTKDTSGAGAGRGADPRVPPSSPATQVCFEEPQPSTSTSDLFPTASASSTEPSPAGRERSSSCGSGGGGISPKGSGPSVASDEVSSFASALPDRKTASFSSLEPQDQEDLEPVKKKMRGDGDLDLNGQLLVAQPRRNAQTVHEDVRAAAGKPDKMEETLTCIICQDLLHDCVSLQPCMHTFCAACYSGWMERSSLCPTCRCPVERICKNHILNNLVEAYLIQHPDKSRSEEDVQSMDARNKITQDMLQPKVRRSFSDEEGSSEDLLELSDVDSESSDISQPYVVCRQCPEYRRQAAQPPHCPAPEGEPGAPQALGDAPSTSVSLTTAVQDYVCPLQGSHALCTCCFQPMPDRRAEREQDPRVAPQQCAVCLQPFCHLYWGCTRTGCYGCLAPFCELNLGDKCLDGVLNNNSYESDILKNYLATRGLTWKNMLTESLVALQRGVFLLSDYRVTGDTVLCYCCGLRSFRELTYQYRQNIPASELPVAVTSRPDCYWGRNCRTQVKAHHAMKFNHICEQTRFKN
Briefly: co-IP; anti-GFP agarose beads (GFP-Trap) pull-down from lysates of HMEC transfected with eGFP-CHFR constructs, 48 h after transfection; 150 ug lysate protein, 2 h at 4 C; immunoblot for endogenous VE-cadherin; ratio of VE-cadherin to GFP-CHFR quantified.

These are yes or no findings as the source states them, for the method shown. For some assays here: Binding seen in cells or lysates may run through a third protein. Some binding calls cover weakened binding; strength is not graded here. Where a sequence is shown, tags or fusion partners need not be part of it.

B1: C-terminal green fluorescent protein (GFP)-tagged hVE-cadherin (protein, UniProt P33151 48-784)
chain: DWIWNQMHIDEEKNTSLPHHVGKIKSSVSRKNAKYLLKGEYVGKVFRVDAETGDVFAIERLDRENISEYHLTAVIVDKDTGENLETPSSFTIKVHDVNDNWPVFTHRLFNASVPESSAVGTSVISVTAVDADDPTVGDHASVMYQILKGKEYFAIDNSGRIITITKSLDREKQARYEIVVEARDAQGLRGDSGTATVLVTLQDINDNFPFFTQTKYTFVVPEDTRVGTSVGSLFVEDPDEPQNRMTKYSILRGDYQDAFTIETNPAHNEGIIKPMKPLDYEYIQQYSFIVEATDPTIDLRYMSPPAGNRAQVIINITDVDEPPIFQQPFYHFQLKENQKKPLIGTVLAMDPDAARHSIGYSIRRTSDKGQFFRVTKKGDIYNEKELDREVYPWYNLTVEAKELDSTGTPTGKESIVQVHIEVLDENDNAPEFAKPYQPKVCENAVHGQLVLQISAIDKDITPRNVKFKFILNTENNFTLTDNHDNTANITVKYGQFDREHTKVHFLPVVISDNGMPSRTGTSTLTVAVCKCNEQGEFTFCEDMAAQVGVSIQAVVAILLCILTITVITLLIFLRRRLRKQARAHGKSVPEIHEQLVTYDEEGGGEMDTTSYDVSVLNSVRRGGAKPPRPALDARPSLYAQVQKPPRHAPGAHGGPGEMAAMIEVKKDEADHDGDGPPYDTLHIYGYEGSESIAESLSSLGTDSSDSDVDYDFLNDWGPRFKMLAELYGSDPREELLY
With B1, the binding result in assay [1] is on record as “binds”.

B2: VE-cadherin, endogenous in HMEC (protein, UniProt P33151 48-784)
chain: DWIWNQMHIDEEKNTSLPHHVGKIKSSVSRKNAKYLLKGEYVGKVFRVDAETGDVFAIERLDRENISEYHLTAVIVDKDTGENLETPSSFTIKVHDVNDNWPVFTHRLFNASVPESSAVGTSVISVTAVDADDPTVGDHASVMYQILKGKEYFAIDNSGRIITITKSLDREKQARYEIVVEARDAQGLRGDSGTATVLVTLQDINDNFPFFTQTKYTFVVPEDTRVGTSVGSLFVEDPDEPQNRMTKYSILRGDYQDAFTIETNPAHNEGIIKPMKPLDYEYIQQYSFIVEATDPTIDLRYMSPPAGNRAQVIINITDVDEPPIFQQPFYHFQLKENQKKPLIGTVLAMDPDAARHSIGYSIRRTSDKGQFFRVTKKGDIYNEKELDREVYPWYNLTVEAKELDSTGTPTGKESIVQVHIEVLDENDNAPEFAKPYQPKVCENAVHGQLVLQISAIDKDITPRNVKFKFILNTENNFTLTDNHDNTANITVKYGQFDREHTKVHFLPVVISDNGMPSRTGTSTLTVAVCKCNEQGEFTFCEDMAAQVGVSIQAVVAILLCILTITVITLLIFLRRRLRKQARAHGKSVPEIHEQLVTYDEEGGGEMDTTSYDVSVLNSVRRGGAKPPRPALDARPSLYAQVQKPPRHAPGAHGGPGEMAAMIEVKKDEADHDGDGPPYDTLHIYGYEGSESIAESLSSLGTDSSDSDVDYDFLNDWGPRFKMLAELYGSDPREELLY
For the molecule B2, the binding entry in assay [2] is on record as “binds”.
